Measurements taken from article PMC8519309.
No constants are given. Whether binding was seen depends on the method and setting. For some of these results: A result given as binding can be weak or reduced; the word gives no strength. For some of these results: Tags and fused reporters may be left off the sequences shown. For some of these results: Binding seen in cells or lysates may run through a third protein. Blank lines part the entries; values can stand above or below the molecule they belong to.

What was measured:
[1] = molecular target: T1, OsLIC-GST fusion protein (rice (Oryza sativa)) (UniProt Q5Z807); assay: pull-down; semi-in vivo pull-down: OsLIC-GST from E. coli as bait, total protein extracts of wild-type rice seedlings; OsRELA detected by immunoblot with anti-OsRELA polyclonal antibodies; only the target purified
T1 sequence: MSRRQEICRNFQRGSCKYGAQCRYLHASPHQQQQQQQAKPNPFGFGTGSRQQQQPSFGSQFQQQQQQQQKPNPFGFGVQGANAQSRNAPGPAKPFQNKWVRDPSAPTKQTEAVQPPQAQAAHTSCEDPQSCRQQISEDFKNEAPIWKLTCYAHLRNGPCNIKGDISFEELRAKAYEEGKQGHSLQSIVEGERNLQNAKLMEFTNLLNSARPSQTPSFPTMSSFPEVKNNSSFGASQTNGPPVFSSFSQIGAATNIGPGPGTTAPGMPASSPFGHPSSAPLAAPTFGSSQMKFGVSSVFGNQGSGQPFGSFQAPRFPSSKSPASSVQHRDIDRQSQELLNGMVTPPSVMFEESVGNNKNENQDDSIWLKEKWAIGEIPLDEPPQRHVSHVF

[2] = molecular target: BD-OsRELA (1–1365 aa) (rice (Oryza sativa)) (UniProt Q0D4N6); assay: two-hybrid; pGBKT7 bait and pGADT7 prey cotransformed into yeast AH109; growth on SD-Trp/-Leu/-His/-Ade; tenfold serial dilutions
[3] = molecular target: BD-OsRELA-T1 (1–199 aa) (rice (Oryza sativa)); assay: as above
[4] = molecular target: BD-OsRELA-T2 (200–643 aa) (rice (Oryza sativa)); assay: as above
[5] = molecular target: BD-OsRELA-T3 (1173–1365 aa) (rice (Oryza sativa)); assay: as above
[6] = molecular target: BD-OsRELA-T4 (1–1172 aa) (rice (Oryza sativa)); assay: as above
[7] = molecular target: OsRELA-NY (rice (Oryza sativa)); assay: split reporter; BiFC with split YFP (pSPYNE/pSPYCE) in rice protoplasts, confocal microscopy

binding [1]: binds
Molecule: OsRELA (endogenous, wild-type rice seedlings)

binding [2]: no binding
B1: OsBZR1 (protein, UniProt Q7XI96 1-298)
chain: MTSGAAAAGRTPTWKERENNKRRERRRRAIAAKIFTGLRALGNYNLPKHCDNNEVLKALCREAGWVVEDDGTTYRKGCKPPPSSAGGASVGMSPCSSTQLLSAPSSSFPSPVPSYHASPASSSFPSPSRIDNPSASCLLPFLRGLPNLPPLRVSSSAPVTPPLSSPTASRPPKIRKPDWDVDPFRHPFFAVSAPASPTRGRRLEHPDTIPECDESDVSTVDSGRWISFQMATTAPTSPTYNLVNPGASTSNSMEIEGTAGRGGAEFEFDKGRVTPWEGERIHEVAAEELELTLGVGAK

binding [2]: no binding
B2: DLT (protein, UniProt Q9LWU9 1-617)
chain: MLAGCSFSSSRHQMSTAQRFDILPCGFSKRGSRGDGAAPRVAGDARSGATTCSFRTHPAPPVTQSVSWGAKPEPGGNGNGAHRAVKRAHDEDAVEEYGPIVRAKRTRMGGDGDEVWFHQSIAGTMQATAAGEGEEAEEEKVFLVPSAAAFPHGMAAAGPSLAAAKKEEYSKSPSDSSSSSGTDGGSSAMMPPPQPPEFDARNGVPAPGQAEREALELVRALTACADSLSAGNHEAANYYLARLGEMASPAGPTPMHRVAAYFTEALALRVVRMWPHMFDIGPPRELTDDAFGGGDDDAMALRILNAITPIPRFLHFTLNERLLREFEGHERVHVIDFDIKQGLQWPGLLQSLAARAVPPAHVRITGVGESRQELQETGARLARVAAALGLAFEFHAVVDRLEDVRLWMLHVKRGECVAVNCVLAMHRLLRDDAALTDFLGLARSTGATILLLGEHEGGGLNSGRWEARFARALRYYAAAFDAVDAAGLPEASPARAKAEEMFAREIRNAVAFEGPERFERHESFAGWRRRMEDGGGFKNAGIGEREAMQGRMIARMFGPDKYTVQAHGGGGSGGGEALTLRWLDQPLYTVTAWTPAGDGAGGSTVSASTTASHSQQS

binding [2]: binds | binding [3]: no binding | binding [4]: no binding | binding [5]: binds | binding [6]: no binding
B3: OsLIC-AD (protein, UniProt Q5Z807 1-390)
chain: T1 sequence

binding [7]: binds
B4: OsLIC-CY (protein, UniProt Q5Z807 1-390)
chain: T1 sequence

binding [2]: no binding
B5: OsGSK2 (protein, UniProt Q60EZ2 1-402)
chain: MDQPAPAPEPMLLDAQPPAAVACDKKQQEGEAPYAEGNDAVTGHIISTTIGGKNGEPKRTISYMAERVVGTGSFGIVFQAKCLETGETVAIKKVLQDRRYKNRELQLMRAMDHPNVISLKHCFFSTTSRDELFLNLVMEYVPETLYRVLKHYSNANHRMPLIYVKLYMYQLFRGLAYIHTVPGVCHRDVKPQNVLVDPLTHQVKLCDFGSAKTLVPGEPNISYICSRYYRAPELIFGATEYTTSIDIWSAGCVLAELLLGQPLFPGESAVDQLVEIIKVLGTPTREEIRCMNPNYTEFRFPQIKAHPWHKVFHKRMPPEAIDLASRLLQYSPSLRCTALDACAHPFFDELREPNARLPNGRPFPPLFNFKHELANSSQELISRLIPEHVRRQATHNFFNTGS
